Results on 1 substance are retold here after article PMC5470993, “Discovery and characterization of small molecule Rac1 inhibitors” (Oncotarget, 2017).

Protein sequences, listed by entry. Tags and fused reporters are not part of them. Residues count along the entry.
UniProt P42768, residues 228-298: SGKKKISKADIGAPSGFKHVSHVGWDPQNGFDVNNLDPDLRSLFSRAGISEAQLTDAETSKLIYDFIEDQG
UniProt P60953: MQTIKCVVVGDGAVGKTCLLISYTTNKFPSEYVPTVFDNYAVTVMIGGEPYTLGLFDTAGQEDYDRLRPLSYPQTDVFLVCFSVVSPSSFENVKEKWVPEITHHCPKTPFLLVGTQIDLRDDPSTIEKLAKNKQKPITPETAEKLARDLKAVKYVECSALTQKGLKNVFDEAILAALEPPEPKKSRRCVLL

For this assay, the target named is GST-WASP-GBD (228-298aa) (UniProt P42768). In words: pull-down; CD18/HPAF cell lysates (1% Triton X-100, 10 mM MgCl2, 4°C) incubated 1 h with agarose beads coated with GST-PAK1, GST-WASP or GST-Rhotekin; immunoblot for Rac1, Cdc42 or RhoA; cells treated with vehicle, compounds #1-#10, NSC23766 or EGF, or lysate with 1 mM GDP; only the target purified.

These are yes or no findings as the source states them, for the method shown. Binding seen in cells or lysates may run through a third protein. Some entries that bind do so weakly or less than the wild type.

As for “Cdc42 (endogenous, CD18/HPAF cells), GTP-bound (from UniProt P60953 1-191)”, the binding entry is “binds”.
